Some of the results follow.

For the experiment, the target named is T1, OsSMF1 (Oryza sativa, UniProt Q6ZLB0 1-436).
T1 sequence: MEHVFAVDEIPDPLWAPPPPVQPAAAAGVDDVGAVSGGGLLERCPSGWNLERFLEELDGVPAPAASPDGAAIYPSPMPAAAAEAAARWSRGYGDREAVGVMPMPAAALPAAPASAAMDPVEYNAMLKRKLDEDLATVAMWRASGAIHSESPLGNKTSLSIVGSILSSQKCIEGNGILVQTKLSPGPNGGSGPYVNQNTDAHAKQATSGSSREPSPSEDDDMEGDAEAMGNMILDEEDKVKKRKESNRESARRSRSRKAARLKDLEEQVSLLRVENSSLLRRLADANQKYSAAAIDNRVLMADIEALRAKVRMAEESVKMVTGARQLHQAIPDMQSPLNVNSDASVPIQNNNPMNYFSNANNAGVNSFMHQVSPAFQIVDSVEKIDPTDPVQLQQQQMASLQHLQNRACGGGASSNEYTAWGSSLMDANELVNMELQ
The experiment is described as follows: protein-binding microarray (RPBM); PBS, 2% BSA, 51.3 ng/ul salmon testes DNA, 50 uM zinc acetate, 200 nM TF, 25 C, 1 h; high values mean tight binding. As to conditions: protein: recombinant; tags: N-terminal polyhistidine and DsRed monomer fusion (pET32a); chain copies: 2; label: CyDye5-dUTP incorporated in the synthesized complementary strand; 3' TTTTT single-stranded linker to array surface; dsDNA, one strand shown. In a few lines:
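For the binding signal, per-feature fluorescence intensity was read in arbitrary units on an Axon 4000B scanner. Before scanning, a 2% BSA-blocked custom Agilent array made double-stranded with Cy5-dUTP was washed after 1 h at 25 °C with 200 nM protein and 50 µM zinc acetate. The proteins were Ni–NTA-purified transcription factors with N-terminal polyhistidine and DsRed fusions, expressed in E. coli BL21-CodonPlus.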
In the case of “CATATACTACATTGGTGCTACATGTGTTATGTGTACAAAGCGGAGTCACCTAGTGCAG”, the binding signal was 3190 fluorescence intensity (a.u.).
The value for “CTTCCACTGACATGACACCAAGAGACCACTTTCTTTAATTCGGAGTCACCTAGTGCAG” was 3250 fluorescence intensity (a.u.); that for “GGTAGTGCTGGCGGTGGCAGTTGTGCTGTCGGCGGCGGCGCGGAGTCACCTAGTGCAG” was 3240 fluorescence intensity (a.u.).
“CTAACTCCGGCGCCACGTCGTCCCCGTCGTCGGCTCGCCGCGGAGTCACCTAGTGCAG”: the binding signal was 12400 fluorescence intensity (a.u.).
Consider “TTTGCCACTGTCCTACTAGATCTTGGTCTTATTTGAGAAGCGGAGTCACCTAGTGCAG”, for which the binding signal is 3550 fluorescence intensity (a.u.).
As for “ACACCCCGAGCCCGCGTTATAATGGACCTCAACAGAAAGACGGAGTCACCTAGTGCAG”, the binding signal is 4090 fluorescence intensity (a.u.).
Consider “CACCTTCTGTGCGCTTGCTTTGCGAATTCGGTCGTCGCCGCGGAGTCACCTAGTGCAG”, for which the binding signal was 3290 fluorescence intensity (a.u.).
The value for “TAGGTCGGATAGACTGATTCTACAAACACGTAGCCCTAGGCGGAGTCACCTAGTGCAG” was 3140 fluorescence intensity (a.u.); that for “GTCGCGCAGCCGCTGACGTTTCGTTGTGTCGGCTCCACCCCGGAGTCACCTAGTGCAG” was 3300 fluorescence intensity (a.u.).
In the case of “TCCGGCGCCTTACTGGTCATCACCAACTCACTGCTCCTCTCGGAGTCACCTAGTGCAG”, the binding signal was 5760 fluorescence intensity (a.u.).
The value for “TGGGGTGGTGTGTTGATGCGGCGGGATTCGAGCCCTGGCCCGGAGTCACCTAGTGCAG” was 3550 fluorescence intensity (a.u.); that for “TCTGATCCCACCTGTCATACACGTATTGTGTCTTGGAGTCCGGAGTCACCTAGTGCAG” was 10500 fluorescence intensity (a.u.).
In the case of “ATTTTCAAACATCCGATATGATAGGGACTTAAAAGTTGTTCGGAGTCACCTAGTGCAG”, the binding signal is 3140 fluorescence intensity (a.u.).
The value for “TGCTGCGTGATTCATATATACTGTCATCTTGCAAAATACACGGAGTCACCTAGTGCAG” was 3580 fluorescence intensity (a.u.).
The value for “CGCCTGCAAGATTGACTCTTGCATAAAAGCATGCTCTCTCCGGAGTCACCTAGTGCAG” was 14500 fluorescence intensity (a.u.); that for “CCTCCTGCTATAGTGCTATCCAAACTGCGGTCCCGCCGGACGGAGTCACCTAGTGCAG” was 3390 fluorescence intensity (a.u.); that for “TCCTTATTGGTGGAGACCTAGCGTATGTTTCTATCTTTGGCGGAGTCACCTAGTGCAG” was 3880 fluorescence intensity (a.u.).
The value for “AACTCTCCAGTCTCCACCCACCTCACTCCACAGTCCACACCGGAGTCACCTAGTGCAG” was 3150 fluorescence intensity (a.u.); that for “GAAGGAGCGGCACACGGTGGTGATCCGGCGGCAGCTCGACCGGAGTCACCTAGTGCAG” was 3860 fluorescence intensity (a.u.).
As for “TTACTGTAGCACCACATTATCAAATCATGACGCAATCAGGCGGAGTCACCTAGTGCAG”, the binding signal was 3940 fluorescence intensity (a.u.).
“GATTCCTGCCTTGATTAGCATGTCACACATCGATGTCAGCCGGAGTCACCTAGTGCAG”: the binding signal was 3680 fluorescence intensity (a.u.).
Take “CTCCCCTGTCGTGTACTCGTCCCTAGCCTAATCCATCCGCCGGAGTCACCTAGTGCAG”: the binding signal was 4210 fluorescence intensity (a.u.).
On to “TGGCCGTGGGCCCCGACAGCCCAGTCCGACGTGTCACCGGCGGAGTCACCTAGTGCAG”, for which the binding signal is 15600 fluorescence intensity (a.u.).
Turning to “CGTCTCTCTCCGCTCCCACGTGCTAGCACACCCAACCTCTCGGAGTCACCTAGTGCAG”, the binding signal was 4440 fluorescence intensity (a.u.).
The value for “GACCATCCAATCGTGACTCAACCTACTAACAACTGATTCCCGGAGTCACCTAGTGCAG” was 9320 fluorescence intensity (a.u.); that for “TGCAGATGGTGCTGTGAAAGCTCTTGAACAGCAGGAAGGTCGGAGTCACCTAGTGCAG” was 43400 fluorescence intensity (a.u.).
The value for “AACTACCAGAAATCGTCATCTGCTGACCTGGTTCAGCTAACGGAGTCACCTAGTGCAG” was 4860 fluorescence intensity (a.u.); that for “GGCCGACGTCGGCGTCGGCGTCGGCGTCGGCTTCACCTTCCGGAGTCACCTAGTGCAG” was 3710 fluorescence intensity (a.u.); that for “GAACAGCTCGTGGATACTAATCGTCGTGGAGAATTCAACACGGAGTCACCTAGTGCAG” was 3780 fluorescence intensity (a.u.).
The value for “TGAATGCACGTACTGGTGATGAATCTCTGATGGATGGAAGCGGAGTCACCTAGTGCAG” was 3210 fluorescence intensity (a.u.); that for “CTCGGCCCACGTCATACGGCCCATGGTCCACGGCCCACATCGGAGTCACCTAGTGCAG” was 14200 fluorescence intensity (a.u.); that for “TTTCACATGTAGATATCATCATCAAATATGTAAAGCGAAACGGAGTCACCTAGTGCAG” was 3480 fluorescence intensity (a.u.).
In the case of “AAGGACCGGATGTAAAACTATTACCTACGTGGAGCATCATCGGAGTCACCTAGTGCAG”, the binding signal was 4160 fluorescence intensity (a.u.).
The value for “AACGTGCCACTTTACCTGACGTGATGAAACAATATTATCACGGAGTCACCTAGTGCAG” was 3320 fluorescence intensity (a.u.); that for “TGAGAGAGAATTGCATTTTATGACATGCCCATATGATGATCGGAGTCACCTAGTGCAG” was 17600 fluorescence intensity (a.u.).
On to “TTATTATTAGTAAATATGTAGTTTTACGATATTTAGTCTTCGGAGTCACCTAGTGCAG”, for which the binding signal is 44400 fluorescence intensity (a.u.).
The value for “AATCCAACGCCCCAGGTTCCTCCACGTCACCCTCCTTCCCCGGAGTCACCTAGTGCAG” was 30700 fluorescence intensity (a.u.); that for “TTTCTTTACAGTAAATTTCACAAAACTACTGATACTTTAACGGAGTCACCTAGTGCAG” was 5760 fluorescence intensity (a.u.); that for “GCTATACTTGATGACCTACAGGCCTTGTAGTCTACCTGACCGGAGTCACCTAGTGCAG” was 3440 fluorescence intensity (a.u.).
Take “CGTTAGCCCACGCATGGCCTCGTGTCACCGTCGCTTCGAGCGGAGTCACCTAGTGCAG”: the binding signal is 4620 fluorescence intensity (a.u.).
For the sequence “ATTATACGTGTCCACACGTGATGGAAGCAGCTCTCGTGGACGGAGTCACCTAGTGCAG”, the binding signal is 3500 fluorescence intensity (a.u.).
As for “CCCTCTCCACATTCTCTTCCACCTGTGTTCCCCTTTTCTTCGGAGTCACCTAGTGCAG”, the binding signal is 3320 fluorescence intensity (a.u.).

These data come from PMC7819943, “Rice protein-binding microarrays: a tool to detect cis-acting elements near promoter regions in rice”.
